Measured data: PubChem BioAssay AID1508597 (Cure First, 2020)
Assay: 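Knock-downs altering ovarian cancer cell survival with or without PARP inhibitor rucaparib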 (primary screen). Cell system: human ovarian carcinoma lines grown from tumours: OCI-P5x (papillary serous) and OCI-C5x (clear cell). Reagents: siRNA pool against human genes, 1.25 pmol siRNA per well. Timing: 72 h or 96 h, depending on the cell culture. Challenge: rucaparib 20 µM (about IC30) or vehicle, present until read-out. Rucaparib or vehicle: Vehicle. Cell line: OCI-C5x (clear cell). Detection: 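Luminescent ATP-based viability assay read 72 or 96 h after transfection, depending on culture, given as normalised percent viability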. Direction: viability, normalised: higher = more viable cells remaining. Hit rule: 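Active when normalised viability falls below 80 percent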. Calls: active = viability under 80%; inactive = viability 80% or more.
This is an unselected part of the about 2,100 reagents, under one of the conditions tested. 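Calls flag viability under 80% in either arm, not effects specific to rucaparib; the reference for percent is not stated.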 Reagent sequences are not shown. The record does not give: the 100% reference.

For ASXL1, technical replicate 1, how do the results read?
viability, normalised (%): 29.3; Outcome: active

Which result is listed for ASXL1, technical replicate 2?
viability, normalised (%): 35; Outcome: active

How did the screen score ASXL1, technical replicate 3?
viability, normalised (%): 36.6; Outcome: active

What is on record for JUNB, technical replicate 1?
viability, normalised (%): 63; Outcome: active

For JUNB, technical replicate 2, how do the results read?
viability, normalised (%): 73.8; Outcome: active

Which result is listed for JUNB, technical replicate 3?
viability, normalised (%): 56; Outcome: active

What is on record for CRKL, technical replicate 1?
viability, normalised (%): 60.7; Outcome: active

With CRKL, technical replicate 2, what was measured?
viability, normalised (%): 48.7; Outcome: active

Which result is listed for CRKL, technical replicate 3?
viability, normalised (%): 39.3; Outcome: active

For ZKSCAN2, technical replicate 1, how do the results read?
viability, normalised (%): 65.6; Outcome: active

With ZKSCAN2, technical replicate 2, how do the results read?
viability, normalised (%): 48.3; Outcome: active

With ZKSCAN2, technical replicate 3, how do the results read?
viability, normalised (%): 63.5; Outcome: active

With FBXL19, technical replicate 1, what does the deposit list?
viability, normalised (%): 52.1; Outcome: active

With FBXL19, technical replicate 2, what was measured?
viability, normalised (%): 56.4; Outcome: active

With FBXL19, technical replicate 3, what does the deposit list?
viability, normalised (%): 53.2; Outcome: active

With PRDM9, technical replicate 1, how do the results read?
viability, normalised (%): 44; Outcome: active

For PRDM9, technical replicate 2, what does the deposit list?
viability, normalised (%): 48.1; Outcome: active

With PRDM9, technical replicate 3, what was measured?
viability, normalised (%): 33.6; Outcome: active

Single entries from the list:
Value for PRDM9, technical replicate 1 in “viability, normalised (%)”: 44
Value for JUNB, technical replicate 1 under “Outcome”: active
Value of ASXL1, technical replicate 3 under “viability, normalised (%)”: 36.6
Under “Outcome”, PRDM9, technical replicate 3 is entered as active
Under “viability, normalised (%)”, JUNB, technical replicate 3 is entered as 56

Additional entries follow.
What is on record for WAPL, technical replicate 1?
viability, normalised (%): 72.1; Outcome: active

What did the screen give for WAPL, technical replicate 2?
viability, normalised (%): 50.5; Outcome: active

How did the screen score WAPL, technical replicate 3?
viability, normalised (%): 53.5; Outcome: active

With KDM5A, technical replicate 1, what was measured?
viability, normalised (%): 40.2; Outcome: active

What is on record for KDM5A, technical replicate 2?
viability, normalised (%): 43.6; Outcome: active

With KDM5A, technical replicate 3, what does the deposit list?
viability, normalised (%): 34.5; Outcome: active

For CDK11B, technical replicate 1, what was measured?
viability, normalised (%): 46.5; Outcome: active

What did the screen give for CDK11B, technical replicate 2?
viability, normalised (%): 45.5; Outcome: active

For CDK11B, technical replicate 3, what does the deposit list?
viability, normalised (%): 39.9; Outcome: active

For GPX1, technical replicate 1, how do the results read?
viability, normalised (%): 63.4; Outcome: active

With GPX1, technical replicate 2, what does the deposit list?
viability, normalised (%): 60; Outcome: active

What did the screen give for GPX1, technical replicate 3?
viability, normalised (%): 62; Outcome: active

What did the screen give for STK39, technical replicate 1?
viability, normalised (%): 48.1; Outcome: active

With STK39, technical replicate 2, what does the deposit list?
viability, normalised (%): 51.4; Outcome: active

How did the screen score STK39, technical replicate 3?
viability, normalised (%): 33.2; Outcome: active
